# According to the supplement of paper PMC8728848:
# Some of the results follow.
# B1: Awp3 (Candida glabrata), B4UN32 (protein)
# chain: MISFVTLLAILGLLSISWADQTVRSVAGDQRVTDPVIVGDNSILDYYGGSNYDFSNNFEIGRGTLYIGKESYFSSFQSAPTDVPNSFHLLIKNTNNLQNNGQFIIENIKRHANQCSNSSIQVFPINFQNDGEFEIISGGVEGRCCLPTSVIAPQNFLNNGKFYYKVLTDTGSIYSGSCMQNVDIGASTTTTVNNNLWEFTGSINAQINGAVSGAAQINLDGSNMFVNANTFSGQVVNLINGGSFLQTSDPLSNIVVINGLGTSDTGVTSIAVKGKGKSFTYNPSSGIVKLTTVEGKTYAYQIGCGYNTKKFITNNDSGASYESADNFFVLTYSEPYSPQTCQLENSSIFSSNFISTSTSSSSSSSSASSLPSSMSSSLPSSLSSSLSSSLSSSMSSSMSSLFIIPPPYTTTRSSGSSIIDTEIVSFYSTTDSPGHTITGTTTTTLYGPHTHSSVSTPSSSSESSTTSNSSIESSSLPHTSVSSTPESSITPSSNTISSSPTSDFSSVQSSSIMESSSVVASSSVINSSSIVDSSSSSASSLPSSMSSSLSSSMSSSLPSSMSSSLSSSLSSSLSSSMSSSMSSLFIIPPPYTTTRSSGSSIIDTEIVSFYSTTDSPGHTITGTTTTTLYGPHTHSSVSTPSSSSESSTTSNSSIESSSLPHTSVSSTPESSITPSSNTISSSPTSDFSSVQSSSIMESSSVVASSSVINSSSIVDSSSSSASSLPSSMPSSLPSSMSSSLSSSMSSSLSSSLSSSLSSSMSSSMSSLFIIPPPYTTTRSSGSSIIDTEIVSFYSTTDSPGHTITGTTTTTLYGPHTHSSVSTPSSSSESSTTSNSSIESSSLPHTSVSSTPESSITPSSNTISSSPTSDFSSVQSSSIMESSSVVASSSATQSSSVINSSSIVDSSSSSASSLPSSMPSSLPSSLSSSLSSSLSSSMSSSMSSLFIIPPPYTTTRSSGSSIIDTEIVSFYSTTDSPGHTITGTTTTTLYESSIYSSSSSTIQESELSNTSRTTMTSNSSVSISSTSSRSSFSNTKSSTIVISQSASLPDSKTDIILSTSSNIGYSSRSLLSDLGTSISDSDIHHSVLHSTESYSSNESGTNPFTSIASLSNFIPESSSHTSTALGSENSVISSDILTTMSHPVATNSGDKPTTPKRSEQVSTTMTSSGPTPDTSSFDTDGMSAYSRPEFTTNSLEVNKSSTSQLGNNKQTFSNLQLESTRPHSENEVDNNTRLLQSIQQSSTYGTNNVNPLSPTGSISIPLTEDGQGDNNNWNSPATNDLCTQISFNLTATTITVTDRITITDSIHDISSEVITSYIYQTIVDQKTVTQTVDGKSLANKMSSIPKPSSRSLIQPQPPVAIELQEGAASTSRVSLVSLFISIILVLL
# Tests used:
# Test in all cases: glycan array binding signal (z-score within array); higher = stronger binding
# Settings in all cases: glycan notation: IUPAC condensed, linker removed
# [1] = target: GlcNAc(b1-2)Gal(b1-3)GalNAc
# Outline: (§1)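 Arrays were curated from the Consortium for Functional Glycomics database, 3228 in total, and kept only where the protein sequence was available. Binding is expressed as a within-array Z-score. This score was averaged across arrays of the same protein sequence at different concentrations or buffers and across linkers, and negative values can be read as non-binding.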
# [2] = target: GlcNAc(b1-2)Man(a1-3)[GlcNAc(b1-2)Man(a1-6)]Man(b1-4)GlcNAc(b1-4)GlcNAc
# Outline: as §1
# [3] = target: GlcNAc(b1-2)Man(a1-3)[GlcNAc(b1-2)Man(a1-6)]Man(b1-4)GlcNAc(b1-4)[Fuc(a1-6)]GlcNAc
# Outline: as §1
# [4] = target: GlcNAc(b1-2)Man(a1-3)[GlcNAc(b1-4)][GlcNAc(b1-2)Man(a1-6)]Man(b1-4)GlcNAc(b1-4)GlcNAc
# Outline: as §1
# [5] = target: GlcNAc(b1-2)Man(a1-3)[GlcNAc(b1-4)][GlcNAc(b1-2)Man(a1-6)]Man(b1-4)GlcNAc(b1-4)[Fuc(a1-6)]GlcNAc
# Outline: as §1
# [6] = target: GlcNAc(b1-2)[GlcNAc(b1-4)]Man(a1-3)[GlcNAc(b1-2)Man(a1-6)]Man(b1-4)GlcNAc(b1-4)GlcNAc
# Outline: as §1
# [7] = target: GlcNAc(b1-2)[GlcNAc(b1-4)]Man(a1-3)[GlcNAc(b1-4)][GlcNAc(b1-2)Man(a1-6)]Man(b1-4)GlcNAc(b1-4)GlcNAc
# Outline: as §1
# [8] = target: GlcNAc(b1-2)[GlcNAc(b1-4)]Man(a1-3)[GlcNAc(b1-4)][GlcNAc(b1-2)[GlcNAc(b1-6)]Man(a1-6)]Man(b1-4)GlcNAc(b1-4)GlcNAc
# Outline: as §1
# [9] = target: GlcNAc(b1-2)[GlcNAc(b1-4)]Man(a1-3)[GlcNAc(b1-4)][GlcNAc(b1-2)[GlcNAc(b1-6)]Man(a1-6)]Man(b1-4)GlcNAc(b1-4)[Fuc(a1-6)]GlcNAc
# Outline: as §1
# [10] = target: GlcNAc(b1-2)[GlcNAc(b1-6)]Man(a1-6)[GlcNAc(b1-2)Man(a1-3)]Man(b1-4)GlcNAc(b1-4)GlcNAc
# Outline: as §1
# [11] = target: GlcNAc(b1-2)[GlcNAc(b1-6)]Man(a1-6)[GlcNAc(b1-2)Man(a1-3)]Man(b1-4)GlcNAc(b1-4)[Fuc(a1-6)]GlcNAc
# Outline: as §1
# [12] = target: GlcNAc(b1-2)[GlcNAc(b1-6)]Man(a1-6)[GlcNAc(b1-4)][GlcNAc(b1-2)Man(a1-3)]Man(b1-4)GlcNAc(b1-4)GlcNAc
# Outline: as §1
# GlcNAc(b1-3)Fuc = target: GlcNAc(b1-3)Fuc
# Outline: as §1
# GlcNAc(b1-3)Gal = target: GlcNAc(b1-3)Gal
# Outline: as §1
# [13] = target: GlcNAc(b1-3)Gal(b1-3)GalNAc
# Outline: as §1
# GlcNAc(b1-3)Gal(b1-4)Glc = target: GlcNAc(b1-3)Gal(b1-4)Glc
# Outline: as §1
# [14] = target: GlcNAc(b1-3)Gal(b1-4)GlcNAc
# Outline: as §1
# [15] = target: GlcNAc(b1-3)Gal(b1-4)GlcNAc(b1-2)Man(a1-3)[GlcNAc(b1-3)Gal(b1-4)GlcNAc(b1-2)Man(a1-6)]Man(b1-4)GlcNAc(b1-4)GlcNAc
# Outline: as §1
# [16] = target: GlcNAc(b1-3)Gal(b1-4)GlcNAc(b1-2)Man(a1-3)[GlcNAc(b1-3)Gal(b1-4)GlcNAc(b1-2)Man(a1-6)]Man(b1-4)GlcNAc(b1-4)[Fuc(a1-6)]GlcNAc
# Outline: as §1
# [17] = target: GlcNAc(b1-3)Gal(b1-4)GlcNAc(b1-2)[GlcNAc(b1-3)Gal(b1-4)GlcNAc(b1-6)]Man(a1-6)[GlcNAc(b1-3)Gal(b1-4)GlcNAc(b1-2)Man(a1-3)]Man(b1-4)GlcNAc(b1-4)GlcNAc
# Outline: as §1
# [18] = target: GlcNAc(b1-3)Gal(b1-4)GlcNAc(b1-3)Gal(b1-4)GlcNAc
# Outline: as §1
# [19] = target: GlcNAc(b1-3)Gal(b1-4)GlcNAc(b1-3)Gal(b1-4)GlcNAc(b1-2)Man(a1-3)[GlcNAc(b1-3)Gal(b1-4)GlcNAc(b1-3)Gal(b1-4)GlcNAc(b1-2)Man(a1-6)]Man(b1-4)GlcNAc(b1-4)GlcNAc
# Outline: as §1
binder,measurement,setting,value
B1,glycan array binding signal (z-score),[1],0.916
same,glycan array binding signal (z-score),[2],-1.14
same,glycan array binding signal (z-score),[3],-0.385
same,glycan array binding signal (z-score),[4],-0.811
same,glycan array binding signal (z-score),[5],-0.106
same,glycan array binding signal (z-score),[6],0.257
same,glycan array binding signal (z-score),[7],-1.57
same,glycan array binding signal (z-score),[8],-1.54
same,glycan array binding signal (z-score),[9],1.3
same,glycan array binding signal (z-score),[10],1.6
same,glycan array binding signal (z-score),[11],1.75
same,glycan array binding signal (z-score),[12],-0.365
same,glycan array binding signal (z-score),GlcNAc(b1-3)Fuc,-0.452
same,glycan array binding signal (z-score),GlcNAc(b1-3)Gal,-1.01
same,glycan array binding signal (z-score),[13],-0.599
same,glycan array binding signal (z-score),GlcNAc(b1-3)Gal(b1-4)Glc,-0.5
same,glycan array binding signal (z-score),[14],0.301
same,glycan array binding signal (z-score),[15],0.171
same,glycan array binding signal (z-score),[16],2.04
same,glycan array binding signal (z-score),[17],-0.51
same,glycan array binding signal (z-score),[18],0.308
same,glycan array binding signal (z-score),[19],-0.083

# Part of the list above, bar-delimited:
binder | measurement | setting | value
B1 | glycan array binding signal (z-score) | [4] | -0.811
same | glycan array binding signal (z-score) | [5] | -0.106
